The values below come from paper PMC11518989.

Sequences of proteins named here, by UniProt entry; tags and fusion partners are left off. A change or cut given only in a name is not applied to a line headed by its entry.
UniProt Q9H8M2: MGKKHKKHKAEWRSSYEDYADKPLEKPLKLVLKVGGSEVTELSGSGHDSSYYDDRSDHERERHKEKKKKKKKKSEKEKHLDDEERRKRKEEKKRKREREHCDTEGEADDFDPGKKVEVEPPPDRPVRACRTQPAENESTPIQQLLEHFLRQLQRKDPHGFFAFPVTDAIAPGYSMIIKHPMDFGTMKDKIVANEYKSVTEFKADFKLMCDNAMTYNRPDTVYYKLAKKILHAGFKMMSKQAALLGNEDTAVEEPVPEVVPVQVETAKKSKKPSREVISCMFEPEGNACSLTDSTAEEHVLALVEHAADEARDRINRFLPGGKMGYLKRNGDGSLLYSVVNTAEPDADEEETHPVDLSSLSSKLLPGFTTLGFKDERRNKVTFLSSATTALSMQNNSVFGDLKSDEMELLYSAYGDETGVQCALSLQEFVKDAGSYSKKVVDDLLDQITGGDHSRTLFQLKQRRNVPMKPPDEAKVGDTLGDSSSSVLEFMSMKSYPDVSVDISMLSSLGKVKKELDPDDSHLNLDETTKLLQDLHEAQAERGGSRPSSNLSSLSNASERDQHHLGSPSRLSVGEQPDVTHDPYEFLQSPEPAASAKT
UniProt Q9NZM4: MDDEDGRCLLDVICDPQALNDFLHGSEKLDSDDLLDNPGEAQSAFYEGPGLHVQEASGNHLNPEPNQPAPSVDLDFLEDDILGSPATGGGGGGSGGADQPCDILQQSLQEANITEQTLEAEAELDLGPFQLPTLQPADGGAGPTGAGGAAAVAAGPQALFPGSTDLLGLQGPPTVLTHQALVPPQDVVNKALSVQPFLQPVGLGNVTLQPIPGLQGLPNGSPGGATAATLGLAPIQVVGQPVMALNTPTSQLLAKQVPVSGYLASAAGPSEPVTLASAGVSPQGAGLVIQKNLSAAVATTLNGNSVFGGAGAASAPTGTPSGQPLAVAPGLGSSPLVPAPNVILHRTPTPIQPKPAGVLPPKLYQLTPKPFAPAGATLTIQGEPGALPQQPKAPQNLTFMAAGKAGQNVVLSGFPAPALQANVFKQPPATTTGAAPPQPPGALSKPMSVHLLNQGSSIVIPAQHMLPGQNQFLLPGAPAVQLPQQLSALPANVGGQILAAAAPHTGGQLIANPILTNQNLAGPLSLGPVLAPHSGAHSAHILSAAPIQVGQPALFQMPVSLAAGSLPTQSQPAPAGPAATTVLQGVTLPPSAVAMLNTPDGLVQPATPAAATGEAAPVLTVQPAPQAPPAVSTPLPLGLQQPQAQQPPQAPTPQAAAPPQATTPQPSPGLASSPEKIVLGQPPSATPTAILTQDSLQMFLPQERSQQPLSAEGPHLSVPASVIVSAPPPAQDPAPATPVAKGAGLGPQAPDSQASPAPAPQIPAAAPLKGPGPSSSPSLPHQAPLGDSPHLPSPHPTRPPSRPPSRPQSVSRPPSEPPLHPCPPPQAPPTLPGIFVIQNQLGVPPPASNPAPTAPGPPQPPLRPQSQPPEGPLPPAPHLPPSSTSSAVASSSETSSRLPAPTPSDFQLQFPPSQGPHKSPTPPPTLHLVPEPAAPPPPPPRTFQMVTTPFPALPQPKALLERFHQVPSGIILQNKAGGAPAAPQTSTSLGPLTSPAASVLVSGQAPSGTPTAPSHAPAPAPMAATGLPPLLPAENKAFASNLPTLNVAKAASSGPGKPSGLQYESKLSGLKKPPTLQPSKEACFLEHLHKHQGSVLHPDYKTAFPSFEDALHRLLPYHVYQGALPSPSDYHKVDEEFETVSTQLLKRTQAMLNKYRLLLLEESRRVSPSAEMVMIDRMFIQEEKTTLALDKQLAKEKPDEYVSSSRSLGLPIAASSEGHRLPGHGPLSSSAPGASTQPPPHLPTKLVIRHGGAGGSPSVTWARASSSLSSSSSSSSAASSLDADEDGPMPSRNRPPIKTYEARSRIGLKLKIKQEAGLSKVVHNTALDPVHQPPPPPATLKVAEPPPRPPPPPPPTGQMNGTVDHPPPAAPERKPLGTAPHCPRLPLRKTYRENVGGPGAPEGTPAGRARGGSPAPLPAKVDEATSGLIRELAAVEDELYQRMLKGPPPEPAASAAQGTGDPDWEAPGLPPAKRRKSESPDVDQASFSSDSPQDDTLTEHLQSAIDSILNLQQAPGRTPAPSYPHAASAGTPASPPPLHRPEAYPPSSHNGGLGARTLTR
UniProt Q92922: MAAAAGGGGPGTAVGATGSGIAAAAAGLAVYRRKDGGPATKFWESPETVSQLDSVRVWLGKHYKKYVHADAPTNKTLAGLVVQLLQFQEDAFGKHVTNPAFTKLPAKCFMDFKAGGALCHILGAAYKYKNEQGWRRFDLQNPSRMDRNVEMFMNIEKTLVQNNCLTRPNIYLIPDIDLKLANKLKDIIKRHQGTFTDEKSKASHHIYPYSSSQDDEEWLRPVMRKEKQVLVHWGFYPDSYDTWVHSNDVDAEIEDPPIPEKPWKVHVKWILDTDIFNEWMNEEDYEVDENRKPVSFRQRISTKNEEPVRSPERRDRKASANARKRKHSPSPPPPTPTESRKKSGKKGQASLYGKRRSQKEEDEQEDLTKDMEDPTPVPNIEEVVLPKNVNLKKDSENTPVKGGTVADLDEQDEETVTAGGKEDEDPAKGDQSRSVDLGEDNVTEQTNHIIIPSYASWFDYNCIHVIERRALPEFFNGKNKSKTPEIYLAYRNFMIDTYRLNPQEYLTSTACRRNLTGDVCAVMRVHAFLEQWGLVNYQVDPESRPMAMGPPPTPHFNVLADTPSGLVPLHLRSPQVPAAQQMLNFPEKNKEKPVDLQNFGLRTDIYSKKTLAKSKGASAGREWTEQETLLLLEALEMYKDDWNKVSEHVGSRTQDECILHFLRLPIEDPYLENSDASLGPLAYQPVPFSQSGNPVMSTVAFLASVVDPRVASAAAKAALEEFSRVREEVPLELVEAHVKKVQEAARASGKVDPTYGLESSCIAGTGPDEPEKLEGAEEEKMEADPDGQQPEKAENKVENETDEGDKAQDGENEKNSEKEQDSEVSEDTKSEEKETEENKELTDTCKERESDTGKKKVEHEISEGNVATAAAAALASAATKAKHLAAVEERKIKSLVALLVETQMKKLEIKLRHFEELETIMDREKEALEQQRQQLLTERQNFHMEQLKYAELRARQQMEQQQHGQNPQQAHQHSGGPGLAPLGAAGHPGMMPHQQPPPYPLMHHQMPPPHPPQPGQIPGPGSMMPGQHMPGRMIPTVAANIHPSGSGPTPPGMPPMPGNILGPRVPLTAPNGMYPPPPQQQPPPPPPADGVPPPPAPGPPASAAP
UniProt P51532: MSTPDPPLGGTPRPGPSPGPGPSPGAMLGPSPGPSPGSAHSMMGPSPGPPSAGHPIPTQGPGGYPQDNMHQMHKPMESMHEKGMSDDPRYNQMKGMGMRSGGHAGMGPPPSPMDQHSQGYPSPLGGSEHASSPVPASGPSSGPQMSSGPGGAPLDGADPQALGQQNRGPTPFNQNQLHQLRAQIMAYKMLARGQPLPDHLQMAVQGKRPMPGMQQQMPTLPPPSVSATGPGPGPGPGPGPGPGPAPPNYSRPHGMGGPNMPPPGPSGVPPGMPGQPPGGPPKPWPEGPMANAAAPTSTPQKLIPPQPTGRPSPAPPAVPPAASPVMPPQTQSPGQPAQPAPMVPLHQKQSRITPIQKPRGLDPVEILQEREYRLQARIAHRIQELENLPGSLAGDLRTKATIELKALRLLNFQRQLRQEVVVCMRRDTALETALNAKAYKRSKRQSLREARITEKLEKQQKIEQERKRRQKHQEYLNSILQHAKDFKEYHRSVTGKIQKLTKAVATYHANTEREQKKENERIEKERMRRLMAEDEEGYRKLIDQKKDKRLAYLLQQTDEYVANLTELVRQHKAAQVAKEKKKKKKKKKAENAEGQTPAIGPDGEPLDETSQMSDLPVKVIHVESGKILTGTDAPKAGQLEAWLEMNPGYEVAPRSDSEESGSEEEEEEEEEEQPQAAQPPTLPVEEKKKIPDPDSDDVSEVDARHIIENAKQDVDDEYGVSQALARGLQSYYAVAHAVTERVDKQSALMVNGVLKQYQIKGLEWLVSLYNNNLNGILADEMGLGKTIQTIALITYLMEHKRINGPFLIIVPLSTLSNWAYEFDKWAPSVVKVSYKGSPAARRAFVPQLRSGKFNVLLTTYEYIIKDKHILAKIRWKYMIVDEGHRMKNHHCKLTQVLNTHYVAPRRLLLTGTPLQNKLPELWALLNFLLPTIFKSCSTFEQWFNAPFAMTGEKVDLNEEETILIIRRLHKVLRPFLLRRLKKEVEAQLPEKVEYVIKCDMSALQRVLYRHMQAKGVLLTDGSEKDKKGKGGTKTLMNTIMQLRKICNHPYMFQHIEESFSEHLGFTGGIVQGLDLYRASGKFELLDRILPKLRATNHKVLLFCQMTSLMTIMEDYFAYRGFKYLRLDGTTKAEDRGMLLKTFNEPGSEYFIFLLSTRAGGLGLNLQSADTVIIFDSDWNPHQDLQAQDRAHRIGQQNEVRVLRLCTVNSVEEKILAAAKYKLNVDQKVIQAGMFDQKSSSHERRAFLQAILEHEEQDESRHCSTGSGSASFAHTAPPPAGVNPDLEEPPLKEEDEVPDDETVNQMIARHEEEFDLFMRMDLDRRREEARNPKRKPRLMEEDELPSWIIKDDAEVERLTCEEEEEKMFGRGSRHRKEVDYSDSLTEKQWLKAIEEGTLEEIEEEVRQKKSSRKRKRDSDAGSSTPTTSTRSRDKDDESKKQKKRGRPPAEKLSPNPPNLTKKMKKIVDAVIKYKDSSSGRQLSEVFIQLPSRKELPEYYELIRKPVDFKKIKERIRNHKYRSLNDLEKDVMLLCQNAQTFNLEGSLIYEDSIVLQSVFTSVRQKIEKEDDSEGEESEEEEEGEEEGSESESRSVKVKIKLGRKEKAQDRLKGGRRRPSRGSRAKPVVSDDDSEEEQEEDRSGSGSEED

The target in assay [1] is regular BRD9 isoform (Bromodomain Containing 9), FLAG-V5-tagged (human (cDNA of the MEC1 CLL cell line and an SF3B1-mutated CLL case)) (UniProt Q9H8M2). Description: co-IP; V5-tag immunoprecipitation from HEK293T cell lines stably overexpressing the regular or alternative BRD9 isoform, western blot; control cells with empty lentiviral vector.
The target in assay [2] is BICRA (human (endogenous in HEK293T)) (UniProt Q9NZM4). The experiment in a line: co-IP; reciprocal BICRA immunoprecipitation from HEK293T cell lines stably overexpressing the regular or alternative BRD9 isoform, western blot; control cells with empty lentiviral vector.

Results are given in words; binding and its absence hold for the method and conditions named. In cells and extracts the contact can be indirect. Some entries that bind do so weakly or less than the wild type.

With BICRA (from UniProt Q9NZM4 1-1560), the binding entry in assay [1] is on record as “binds”.
For the substance “regular BRD9 isoform (Bromodomain Containing 9), FLAG-V5-tagged (from UniProt Q9H8M2 1-597)”, in assay [2], the binding entry is “binds”.
For the substance SMARCC1 (from UniProt Q92922 1-1105), the binding result in assay [2] and in assay [1] was “binds” in each case.
As for SMARCA4 (from UniProt P51532 1-1647), the binding result in assay [2] and in assay [1] was “binds” throughout.
